The record followed here is paper PMC12742733.

Amino acid sequences for entries named in this document (tags omitted). A change or cut given only in a name is not applied to a line headed by its entry. Residues count along the entry.
UniProt Q16620, residues 32-822: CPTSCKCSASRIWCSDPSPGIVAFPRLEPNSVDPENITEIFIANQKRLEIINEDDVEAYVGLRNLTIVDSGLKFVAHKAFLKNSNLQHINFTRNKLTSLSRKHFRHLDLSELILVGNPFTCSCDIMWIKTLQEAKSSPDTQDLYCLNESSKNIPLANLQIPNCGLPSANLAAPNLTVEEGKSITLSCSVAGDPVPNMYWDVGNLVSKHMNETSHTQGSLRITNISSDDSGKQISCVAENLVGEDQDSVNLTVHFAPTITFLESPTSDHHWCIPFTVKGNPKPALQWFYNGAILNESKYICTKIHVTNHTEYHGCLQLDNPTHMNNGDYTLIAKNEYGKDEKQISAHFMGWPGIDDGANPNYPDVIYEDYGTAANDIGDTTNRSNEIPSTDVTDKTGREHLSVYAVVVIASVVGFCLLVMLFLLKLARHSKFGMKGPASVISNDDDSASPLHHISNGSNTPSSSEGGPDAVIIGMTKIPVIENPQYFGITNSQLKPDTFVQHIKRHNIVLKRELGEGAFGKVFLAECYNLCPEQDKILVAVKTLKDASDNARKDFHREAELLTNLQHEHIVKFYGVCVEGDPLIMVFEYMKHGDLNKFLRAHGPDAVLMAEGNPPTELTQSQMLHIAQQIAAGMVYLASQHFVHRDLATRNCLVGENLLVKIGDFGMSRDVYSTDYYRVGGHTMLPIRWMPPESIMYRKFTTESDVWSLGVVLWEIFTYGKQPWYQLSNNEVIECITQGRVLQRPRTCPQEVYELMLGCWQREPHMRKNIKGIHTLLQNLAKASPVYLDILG
UniProt Q9H156: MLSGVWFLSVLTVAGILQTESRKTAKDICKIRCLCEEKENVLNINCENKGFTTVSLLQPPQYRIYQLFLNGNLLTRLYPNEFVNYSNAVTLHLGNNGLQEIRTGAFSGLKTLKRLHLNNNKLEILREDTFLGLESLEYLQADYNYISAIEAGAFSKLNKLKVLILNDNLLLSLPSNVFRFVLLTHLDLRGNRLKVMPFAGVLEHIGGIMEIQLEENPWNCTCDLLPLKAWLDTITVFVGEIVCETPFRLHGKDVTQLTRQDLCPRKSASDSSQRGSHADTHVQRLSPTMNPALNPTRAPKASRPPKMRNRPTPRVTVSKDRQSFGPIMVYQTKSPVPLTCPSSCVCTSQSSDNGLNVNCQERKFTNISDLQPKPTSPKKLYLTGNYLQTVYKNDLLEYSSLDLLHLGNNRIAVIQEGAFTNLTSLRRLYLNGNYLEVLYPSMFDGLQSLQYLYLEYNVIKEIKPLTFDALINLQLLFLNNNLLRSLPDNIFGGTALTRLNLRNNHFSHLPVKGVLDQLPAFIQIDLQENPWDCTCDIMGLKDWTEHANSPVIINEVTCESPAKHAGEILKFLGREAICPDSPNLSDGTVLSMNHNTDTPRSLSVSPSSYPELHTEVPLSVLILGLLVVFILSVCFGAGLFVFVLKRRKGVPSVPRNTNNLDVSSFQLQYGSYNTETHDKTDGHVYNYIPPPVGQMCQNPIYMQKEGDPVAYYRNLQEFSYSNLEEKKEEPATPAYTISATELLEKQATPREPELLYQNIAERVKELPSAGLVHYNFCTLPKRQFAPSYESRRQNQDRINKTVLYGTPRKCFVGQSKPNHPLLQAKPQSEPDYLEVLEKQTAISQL

These are yes or no findings as the source states them, for the method shown. In cells and extracts the contact can be indirect. Binding calls can cover weak binding; strength is not graded here.

For this assay, the target named is TrkB (pCMV-SPORT6-TrkB), untagged (UniProt Q16620). In words: co-IP; HEK293T cells transfected with pCMV-SPORT6-TrkB and pDisplay-SLITRK2 plasmids; lysis in 20 mM Tris pH 7.4, 1.0% Triton X-100, 0.1% SDS, 150 mM NaCl, 10% glycerol; antibody overnight at 4 °C, protein A-Sepharose; immunoblot.

As for “HA-tagged SLITRK2 ΔPDZ (from UniProt Q9H156) (receptor)”, the binding entry was “binds”.
